{"source": "paper PMC8384837", "conditions_in_all_cases": "yeast three-hybrid, YBZ-1, SC-Leu-His + 0.5 mM 3-AT, 4 days", "key": {"[1]": {"target": "T1, PUM1 PUF domain R2-GWG N899G + Y900W + Q903G (Homo sapiens) (UniProt Q14671)", "T1 sequence": "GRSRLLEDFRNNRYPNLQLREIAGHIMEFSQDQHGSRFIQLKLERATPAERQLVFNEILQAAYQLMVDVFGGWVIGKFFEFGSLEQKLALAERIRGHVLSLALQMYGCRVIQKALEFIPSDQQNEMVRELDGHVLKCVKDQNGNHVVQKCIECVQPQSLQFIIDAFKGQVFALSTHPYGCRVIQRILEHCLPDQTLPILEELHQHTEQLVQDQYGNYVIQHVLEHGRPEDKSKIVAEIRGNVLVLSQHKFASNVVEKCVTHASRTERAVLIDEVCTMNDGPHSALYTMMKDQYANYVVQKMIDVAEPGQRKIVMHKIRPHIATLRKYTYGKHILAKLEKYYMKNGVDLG"}, "[2]": {"target": "T2, PUM1 PUF domain R2-GWW N899G + Y900W + Q903W (Homo sapiens) (UniProt Q14671)", "T2 sequence": "T1 sequence with G76W"}, "[3]": {"target": "T3, PUM1 PUF domain R2-KLS N899K + Y900L + Q903S (Homo sapiens) (UniProt Q14671)", "T3 sequence": "T1 sequence with G72K, W73L, G76S"}, "[4]": {"target": "T4, PUM1 PUF domain R2-LFA N899L + Y900F + Q903A (Homo sapiens) (UniProt Q14671)", "T4 sequence": "T1 sequence with G72L, W73F, G76A"}, "[5]": {"target": "T5, PUM1 PUF domain R2-LFL N899L + Y900F + Q903L (Homo sapiens) (UniProt Q14671)", "T5 sequence": "T1 sequence with G72L, W73F, G76L"}, "[6]": {"target": "T6, PUM1 PUF domain R2-LFS N899L + Y900F + Q903S (Homo sapiens) (UniProt Q14671)", "T6 sequence": "T1 sequence with G72L, W73F, G76S"}, "[7]": {"target": "T7, PUM1 PUF domain R2-LFV N899L + Y900F + Q903V (Homo sapiens) (UniProt Q14671)", "T7 sequence": "T1 sequence with G72L, W73F, G76V"}, "[8]": {"target": "T8, PUM1 PUF domain R2-LWD N899L + Y900W + Q903D (Homo sapiens) (UniProt Q14671)", "T8 sequence": "T1 sequence with G72L, G76D"}, "[9]": {"target": "T9, PUM1 PUF domain R2-LWF N899L + Y900W + Q903F (Homo sapiens) (UniProt Q14671)", "T9 sequence": "T1 sequence with G72L, G76F"}, "[10]": {"target": "T10, PUM1 PUF domain R2-LWR N899L + Y900W + Q903R (Homo sapiens) (UniProt Q14671)", "T10 sequence": "T1 sequence with G72L, G76R"}, "[11]": {"target": "T11, PUM1 PUF domain R2-RKG N899R + Y900K + Q903G (Homo sapiens) (UniProt Q14671)", "T11 sequence": "T1 sequence with G72R, W73K"}, "[12]": {"target": "T12, PUM1 PUF domain R2-RRM N899R + Y900R + Q903M (Homo sapiens) (UniProt Q14671)", "T12 sequence": "T1 sequence with G72R, W73R, G76M"}, "[13]": {"target": "T13, PUM1 PUF domain R2-RTQ N899R + Y900T (Homo sapiens) (UniProt Q14671)", "T13 sequence": "T1 sequence with G72R, W73T, G76Q"}, "[14]": {"target": "T14, PUM1 PUF domain R8-KKV N1122K + Y1123K + Q1126V (Homo sapiens) (UniProt Q14671)", "T14 sequence": "T1 sequence with G72N, W73Y, G76Q, N295K, Y296K, Q299V"}, "[15]": {"target": "T15, PUM1 PUF domain R8-MYF N1122M + Q1126F (Homo sapiens) (UniProt Q14671)", "T15 sequence": "T1 sequence with G72N, W73Y, G76Q, N295M, Q299F"}, "[16]": {"target": "T16, PUM1 PUF domain R8-QFP N1122Q + Y1123F + Q1126P (Homo sapiens) (UniProt Q14671)", "T16 sequence": "T1 sequence with G72N, W73Y, G76Q, N295Q, Y296F, Q299P"}, "[17]": {"target": "T17, PUM1 PUF domain R8-RCK N1122R + Y1123C + Q1126K (Homo sapiens) (UniProt Q14671)", "T17 sequence": "T1 sequence with G72N, W73Y, G76Q, N295R, Y296C, Q299K"}, "[18]": {"target": "T18, PUM1 PUF domain R8-RKV N1122R + Y1123K + Q1126V (Homo sapiens) (UniProt Q14671)", "T18 sequence": "T1 sequence with G72N, W73Y, G76Q, N295R, Y296K, Q299V"}, "[19]": {"target": "T19, PUM1 PUF domain R8-RPR N1122R + Y1123P + Q1126R (Homo sapiens) (UniProt Q14671)", "T19 sequence": "T1 sequence with G72N, W73Y, G76Q, N295R, Y296P, Q299R"}, "[20]": {"target": "T20, PUM1 PUF domain R8-RSR N1122R + Y1123S + Q1126R (Homo sapiens) (UniProt Q14671)", "T20 sequence": "T1 sequence with G72N, W73Y, G76Q, N295R, Y296S, Q299R"}}, "note": "Positions count from the first letter of the chain named. This is one part of the list.", "data": [{"sequence": "GGCUAGAACUAGUGGAUCCCCCGGCGCCCGGCGGCUCGAGCCCGGGUAAGUGUAAAUAGUCUGCAUGCCGCCGGGCGCCAUGCCUGCAGGUCGACUCUAGAAAACAUG", "values": [{"measurement": "binding signal (log2 enrichment (interaction score))", "setting": "[1]", "result": 0.16}, {"measurement": "binding signal (log2 enrichment (interaction score))", "setting": "[2]", "result": -1.13}, {"measurement": "binding signal (log2 enrichment (interaction score))", "setting": "[3]", "result": -2.46}, {"measurement": "binding signal (log2 enrichment (interaction score))", "setting": "[4]", "result": -0.76}, {"measurement": "binding signal (log2 enrichment (interaction score))", "setting": "[5]", "result": -6.06}, {"measurement": "binding signal (log2 enrichment (interaction score))", "setting": "[6]", "result": -1.33}, {"measurement": "binding signal (log2 enrichment (interaction score))", "setting": "[7]", "result": -0.86}, {"measurement": "binding signal (log2 enrichment (interaction score))", "setting": "[8]", "result": -4.57}, {"measurement": "binding signal (log2 enrichment (interaction score))", "setting": "[9]", "result": -2.73}, {"measurement": "binding signal (log2 enrichment (interaction score))", "setting": "[10]", "result": -0.83}, {"measurement": "binding signal (log2 enrichment (interaction score))", "setting": "[11]", "result": -2.41}, {"measurement": "binding signal (log2 enrichment (interaction score))", "setting": "[12]", "result": -0.81}, {"measurement": "binding signal (log2 enrichment (interaction score))", "setting": "[13]", "result": -0.18}, {"measurement": "binding signal (log2 enrichment (interaction score))", "setting": "[14]", "result": -0.37}, {"measurement": "binding signal (log2 enrichment (interaction score))", "setting": "[15]", "result": -0.92}, {"measurement": "binding signal (log2 enrichment (interaction score))", "setting": "[16]", "result": -2.14}, {"measurement": "binding signal (log2 enrichment (interaction score))", "setting": "[17]", "result": 0.07}, {"measurement": "binding signal (log2 enrichment (interaction score))", "setting": "[18]", "result": -1.53}, {"measurement": "binding signal (log2 enrichment (interaction score))", "setting": "[19]", "result": -0.06}, {"measurement": "binding signal (log2 enrichment (interaction score))", "setting": "[20]", "result": 0.07}]}]}
